Reference: the supplement of paper PMC10338343
± gives the standard deviation. Only a part is listed here, and it is no random draw. Many entries were measured with a wide error.

The sequences below were run on MIWI (PIWIL1) piRISC loaded with L1MC piRNA (30 nt) (assay: pre-steady-state target cleavage rate (min^-1); MIWI and MILI are mouse PIWI proteins and EfPiwi is from a freshwater sponge; tags in brackets are library labels; higher = faster piRNA-guided slicing of the target). Conditions: guide: L1MC piRNA 5'p-UAACUAAAUACUAUGCAAGCUGUAGGUCCU; auxiliary factor: none (no GTSF1).
Method in brief: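 Sequencing of uncleaved targets, normalised to depth and to weakly complementary targets, was the readout of this Cleave-'n-Seq assay. A transcribed, DNA-blocked target RNA library (0.1 nM) was mixed with 1 nM active affinity-purified piRISC carrying one synthetic guide, with or without 500 nM GTSF1 partner protein, in HEPES–potassium acetate buffer at 33 °C for 0–8 or 0–960 min. Three trials were pooled, k3 was capped at 0.0001 min^-1, and a burst-and-steady-state fit gave the pre-steady-state cleavage rate.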

Sequence | pre-steady-state target cleavage rate
UCCUGGAUGUCGAACGAUAGUAUUGUAGUUA | 0.000352 ± 0.027
UCCUGGAUGUCGAACGAUAGUUAAUAGUUA | 0.00017 ± 0.021
AGGACCUACAGCUUGCAUACAUAAAUCAAA [g12:g30:cont:t1A] | 0.000259 ± 0.015
UCGACCUACAGCAACCAUAGUAUUUUCAAA | 0.000202 ± 0.015
UGGACCUACAGCUUCCUUAGUAUUUAGUUA | 0.00189 ± 0.0026
UCCACCAUGAGCUUGCAUAGUAUUUUCAAA | 0.00191 ± 0.0025
UCCACCUACAGCUUCGAUAGUAUUUAGUAA | 0.00105 ± 0.0059
UGGACCUACAGCUUGCUAUGUAUUUAGAAA | 0.00101 ± 0.0045
UCCACCUACAGCUUGCAUAGUAUUAUGUAA | 0.00151 ± 0.0039
UGGACCUACAGCUUCGUUAGUAUUUAGUAA | 0.001 ± 0.0043
UGGACCUACAGCUUGGUAAGUAUUUAGUAA | 0.000474 ± 0.0072
UCCUGGAUGUCGAACGUUACUAUUUAGUAA | 0.000187 ± 0.036
UCCACCUACAGCUUGGUUAGUAUUUAGAAA | 0.000972 ± 0.0043
UCGACCUACAGCUUGCUAAGUAUUUACAAA | 0.00102 ± 0.0062
UCCUGGAUGUCGUUGCAUAGUAAAUAGUUA | 0.00111 ± 0.0079
AGGACCUACAGCUUCCAAAGUAUUUAGUUA | 0.00137 ± 0.0025
AGGACCUACAGCUUGGUAAGUAUUUUCAAA | 0.000275 ± 0.015
UCCACCUACAGCAACCAUAGUAUUUAGAAA | 0.000283 ± 0.0082
UCCACCUACAGCUUGCAUAGAUAUUAGAAA | 0.000672 ± 0.01
UCGAGCUACAGCUUGCAUAGUAUUUUCAAA | 0.00247 ± 0.0031

Reprinted at random: three entries already listed, in no set order.
Sequence | pre-steady-state target cleavage rate
UCCACCUACAGCUUGCAUAGUAUUAUGUAA | 0.00151 ± 0.0039
UCCUGGAUGUCGAACGUUACUAUUUAGUAA | 0.000187 ± 0.036
UCGACCUACAGCAACCAUAGUAUUUUCAAA | 0.000202 ± 0.015

Going on with the list:

Sequence | pre-steady-state target cleavage rate
UCCACCUACACGAUGCAUAGUAUUUUCAAA | 0.000608 ± 0.012
UCCACCUACAGCUUGCAUAGUAUAAAGAAA | 0.00157 ± 0.0039
UCCUGGAUGUCGAACGUUAGUGAUUUAGUUA | 0.000354 ± 0.018
UCCUGGAUGUCGAACGAUAGUAUUUAUGUUA | 0.000188 ± 0.037
UCCACCUACAGCUUGCUAUGUAUUUAGAAA | 0.000228 ± 0.017
UCGACCUACAGCUACCAUAGUAUUUAGUAA | 0.00097 ± 0.0056
UCGACCUACAGCUUGCAUAGAAUUUACAAA | 0.00298 ± 0.0032
UCCACCUACAGCUUGCUAAGUAUUUAGAAA | 0.000703 ± 0.0074
UCGACCUACUCCUUGCAUAGUAUUUUCAAA | 0.00188 ± 0.0026
AGGACCUACAGGUUGCAUAGUAUUUUCAAA | 0.00289 ± 0.003
AGGACCUACAGCUUGCGAUAGUAUUUAGUUA | 0.00113 ± 0.008
AGGACCUACAGCUUCGAUAGUAUUUAGUUA | 0.00213 ± 0.0025
UCCACCUACAGCUUCCAUAGUAUUAAGUUA | 0.000768 ± 0.0068
UGGACCUACAGCUUGGUUAGUAUUUAGAAA | 0.00206 ± 0.0026
UCCUCCUACACGAUGCAUAGUAUUUAGUAA | 0.000974 ± 0.0039
UCCUGCUACAGCUUCCAUAGUAUAUAGUUA | 0.000988 ± 0.01
UCGACCUACAGCUUGCCAUAGUAUUUAGUUA | 0.0029 ± 0.0036
AGGACCUACAGCUUGCAUAGUAUAAUCAAA | 0.00143 ± 0.0063
UCCUGGAUGUCGAACGAUACUAUUAAGUUA | 0.00023 ± 0.025
